For at least one compound, name, drawing or mass did not settle the structure.
System: keratinocyte transglutamase (TGk) activity in normal human epidermal keratinocytes (NHEK) of R3KO15 type
Assay: keratinocyte transglutamase (TGk) activity after prolonged contact of keratinocytes with the test composition
Type: cell-based
Settings: 10^−7 M
Protocol: The tests performed below use normal human epidermal keratinocytes (NHEK) of R3KO15 type obtained from breast surgery.
The activity of a composition in accordance with the invention is tested with regard to these keratinocytes by assaying the keratinocyte transglutamase (TGk) activity after prolonged contact of the keratinocytes with the test composition, the increase in TGk activity sanctioning a stimulation of keratinocyte differentiation.
The activity is tested in an SFM medium available from Invitrogen under the reference 17005034. […]
The membrane TGk enzyme is extracted in the presence of Triton X-100 (incubation with stirring at 4° C.) and the TGk activity is then determined by measuring the covalent addition of tritiated putrescine at 2 μCi/ml final (Amersham TRK 414; 1.04 TBq/mmol, 28 Ci/mmol) to casein (acceptor protein, 2 mg/ml final), in a Tris 0.1 M, CaCl2 4 mM, EDTA 0.4 mM, DTT 5 mM, pH 8.3 buffer, for 2 hours at 37° C.
The casein is precipitated by addition of 20% trichloroacetic acid (TCA) containing 1 mM putrescine and the precipitates are recovered on a Skatron filter and collector (extensive washing with 5% TCA, 0.1 mM putrescine and ethanol) and the dry filters are then counted by liquid scintillation. […]

## CC1=C(/C=C/C(C)=C/C=C/C(C)=C/C(=O)O)C(C)(C)CCC1 [Retinoic acid, retinoic acid, reference compound]
  effect on the TGk activity relative to the blank —Ca (in words): reduction in the TGk activity
